PubChem BioAssay AID652272 | Drosophila RNAi Screening Center, 2013
Assay: 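Finding fly genes that regulate Hedgehog signal transduction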 (primary screen). Cell system: Drosophila clone 8 (Cl8) cells. Knock-down reagent: long dsRNA against Drosophila genes. Measured: 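Firefly light from a Hedgehog-responsive ptc promoter reporter and Renilla reference light, both read on a plate reader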. Reading the numbers: firefly Hh reporter signal: higher = more ptc reporter light; Renilla reference signal: higher = more Renilla control light. Hit rule: 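Hit when the z-score averaged over two replicates is under -2 or over +3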. Calls: active = hit: reporter lowered or raised; inactive = not a hit.
The screen tested about 21,000 reagents; this is a random part of those with a known target gene and a result. Over the whole deposit, 503 (2.4%) got an active call. 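Raw plate light values, not normalised; calls rest on replicate z-scores that were not deposited; hits include reporter decreases as well as increases.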 Entries without a mark were called inactive. A plus sign joins genes that one reagent is predicted to hit. No sequences are given here. Not stated in the record: the amount of reagent, the time to read-out.

Target gene | DRSC id | firefly Hh reporter signal, replicate 1 | firefly Hh reporter signal, replicate 2 | firefly Hh reporter signal, replicate 3 | Renilla reference signal, replicate 1 | Renilla reference signal, replicate 2
yellow-d2 | DRSC04591 | 58624 | 61890 | – | 1529 | 5050
Mdr65 | DRSC11220 | 27152 | 4.39e5 | 72521 | 2970 | 25498
Dhc98D | DRSC16645 | 96032 | 1.01e5 | – | 2825 | 3696
Cyp4d21 | DRSC03305 | 76579 | 64504 | – | 3120 | 2757
CG31253 + CG31131 | DRSC13839 | 51669 | 1.69e5 | – | 13392 | 4012
shd | DRSC11129 | 95080 | – | – | 2891 | 3045
Galphas | DRSC04616 | 74297 (active) | 58789 | – | 4604 | 3559
rut | DRSC20367 | 22496 (active) | 31954 | – | 1808 | 1421
Pfrx | DRSC18856 | 1.55e5 | 2.54e5 | – | 6305 | 11779
Pfrx | DRSC19315 | 6.38e5 | 2.08e5 | – | 36711 | 4491
Crk | DRSC17163 | 2.03e5 | 88016 | – | 4283 | 3497
CG12446 | DRSC20618 | 78604 | 1.76e5 | – | 2338 | 7979
CG4281 | DRSC18521 | 1.04e5 | 86246 | – | 2331 | 2688
Amnionless | DRSC00317 | 1.39e5 | 87616 | – | 3344 | 1884
CG7140 | DRSC11799 | 91147 | 84320 | – | 3277 | 2266
FMRFaR | DRSC08555 | 75488 | 47090 | – | 2528 | 3136
CG11437 | DRSC11659 | 1.28e5 | 1.61e5 | – | 3760 | 2643
CG2021 | DRSC08546 | 81677 | 39590 | – | 2770 | 3619
CG13123 | DRSC02219 | 68467 | 50540 | – | 2032 | 4375
Pdfr | DRSC18614 | 82000 | 2.03e5 | – | 2803 | 8349
Cdc2rk | DRSC07590 | 81427 | 42544 | – | 1892 | 3623
GV1 | DRSC08228 | 82103 | 44989 | – | 2960 | 3760
Arf6 | DRSC05921 | 86640 | 68101 | – | 1858 | 4601
Lsd-1 | DRSC14236 | 1.27e5 | 75732 | – | 5618 | 2316
CG15124 | DRSC06546 | 80530 | 63558 | – | 2330 | 4165
GluClalpha | DRSC16680 | 7.76e5 | 1.28e5 | – | 35318 | 3783
CG31729 | DRSC02524 | 1.05e5 | 68096 | – | 4546 | 2674
CG31729 | DRSC02946 | 1.11e5 | 52807 | – | 2854 | 5514
Ube4A | DRSC02004 | 67985 | 52832 | – | 3281 | 2036
CG18585 | DRSC02678 | 80813 | 1.06e5 | – | 3329 | 4534
Dhc93AB | DRSC16644 | 5.24e5 | 72985 | – | 24400 | 2048
CG8545 | DRSC07210 | 54857 | 50918 | – | 3065 | 3300
al | DRSC00799 | 1.71e5 | 1.19e5 | – | 4017 | 2709
Cpsf6 | DRSC10781 | 41212 | 60653 | – | 2614 | 3222
CG10226 | DRSC09715 | 67153 | 61466 | – | 3129 | 2521
Cyp12a4 | DRSC16620 | 4.72e5 | 86716 | – | 24333 | 1989
TfIIA-L | DRSC16882 | 1.12e5 | 64247 | – | 2883 | 1811
Osi9 | DRSC12278 | 4.64e5 | 85280 | – | 3001 | 3001
CG10137 | DRSC02014 | 37921 | 29616 | – | 2214 | 1373
CG10137 | DRSC02015 | 66325 | 38780 | – | 1707 | 3218
tyf | DRSC18382 | 66101 | 1.37e5 | – | 2080 | 5424
CG8768 | DRSC07259 | 71072 | 51357 | – | 3173 | 2444
HBS1 | DRSC08544 | 99565 | 1.06e5 | – | 4331 | 3768
CG2076 | DRSC19832 | 78744 | 1.72e5 | – | 2195 | 6486
spo | DRSC11127 | 32587 | 60387 | – | 3753 | 4034
CG32219 | DRSC09641 | 3.27e5 | – | – | 7053 | –
BEAF-32 | DRSC05927 | 70678 | 59292 | – | 3613 | 2672
CG11475 | DRSC04113 | 63088 | 73594 | – | 2458 | 2723
spn-A | DRSC16812 | 88010 | 67940 | – | 3393 | 1962
CG31121 | DRSC15361 | 5.28e5 | 1.21e5 | – | 27600 | 3464
CG31121 | DRSC15363 | 6.15e5 | 1.01e5 | – | 31360 | 3481
Ir68b | DRSC10251 | 55513 | 42453 | 45457 | 4679 | 3065
Os-C | DRSC16778 | 1.04e5 | 1.91e5 | – | 3888 | 10281
mys | DRSC18799 | 60918 | 1.46e5 | – | 2779 | 6717
CG31637 | DRSC02270 | 1.27e5 | 1.04e5 | – | 4773 | 3399
CG31637 | DRSC03263 | 61760 | 18555 | – | 1812 | 2935
CG13723 | DRSC10052 | 1.28e5 | – | – | 3258 | 2923

Hits, among the entries above:
Target gene | DRSC id | firefly Hh reporter signal, replicate 1 | firefly Hh reporter signal, replicate 2 | firefly Hh reporter signal, replicate 3 | Renilla reference signal, replicate 1 | Renilla reference signal, replicate 2
Galphas | DRSC04616 | 74297 (active) | 58789 | – | 4604 | 3559
rut | DRSC20367 | 22496 (active) | 31954 | – | 1808 | 1421
